# In US20170037425A1, “METHOD FOR IMPROVING PLANT TRAIT” (SHANGHAI INSTITUTES FOR BIOLOGICAL SCIENCES, CHINESE …, priority 2012, published 2017):
# Experiment: Absorption and fluorescence of LEAT proteins and their mutants
# Assay type: physicochemical
# Conditions: for Fluorescence: fluorescence intensity in words, recombinant protein from E. coli
# Description: FIG. 7. Absorption spectra of YFP (A, B) and mCherry (E, F) and their mutants. (B) is a zoom in view of YFPmu4 and YFPmu7 in (A). (F) is a zoom in view of mCherrymu4 and mCherrymu7 in (E). Fluorescence of YFP (C) and mCherry (G) and their mutant. Water hydrolysis and O2 evolution activities of YFP (D) and mCherry (H) and their mutants under light. (A, B, C, E, F, G): absorption and fluorescence intensities were compared with same concentrations of proteins. Absorption intensity of non-mutated YFP or mCherry is considered as 1, and fluorescence intensity of non-mutated YFP or mCherry is considered as 100.
Substance,Fluorescence,"absorbance, decreased to % of original protein (same protein concentration)","fluorescence, decreased to % of original (WT) protein (same protein concentration)"
"eqFP611: fluorescent protein from Entacmaea quadricolor (AY130757), SEQ ID NO: 30",weak,–,–
"mCherrymu3: mCherry mutant S151C S152C K167M, SEQ ID NO: 22",–,40%,4%
"mCherry: red fluorescent protein, amino acid sequence SEQ ID NO: 2",Srong,–,–
"mCherrymu5: mCherry mutant S151C S152C H166N K167M I202A, SEQ ID NO: 26",–,–,~5%
"mCherrymu4: mCherry mutant S151C S152C K167M I202A, SEQ ID NO: 24",–,–,about 3%
"YFP: yellow fluorescent protein, amino acid sequence SEQ ID NO: 8",strong,–,–
